The other results are listed elsewhere or left out. Small differences around the control level are noise.
Compound: CN[C@@H]1C[C@H]2O[C@@](C)([C@@H]1OC)n1c3ccccc3c3c4c(c5c6ccccc6n2c5c31)C(=O)NC4 [staurosporine]
Experiment: log2 fold change of tryptic peptide abundance, ligand vs vehicle (limited proteolysis) (log2 ratio); higher = more trypsin-susceptible (destabilized)
Conditions: ligand concentration: 20 uM; sample: mouse liver crude lysate; replicate design: treated separately

Amino acid sequences for entries named in this document (tags omitted). A change or cut given only in a name is not applied to a line headed by its entry.
UniProt P08030: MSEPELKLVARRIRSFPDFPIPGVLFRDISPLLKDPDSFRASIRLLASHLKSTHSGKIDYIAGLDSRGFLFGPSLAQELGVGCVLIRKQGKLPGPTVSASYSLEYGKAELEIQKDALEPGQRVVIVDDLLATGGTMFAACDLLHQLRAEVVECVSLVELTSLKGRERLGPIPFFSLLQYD
UniProt P15105, whole entry: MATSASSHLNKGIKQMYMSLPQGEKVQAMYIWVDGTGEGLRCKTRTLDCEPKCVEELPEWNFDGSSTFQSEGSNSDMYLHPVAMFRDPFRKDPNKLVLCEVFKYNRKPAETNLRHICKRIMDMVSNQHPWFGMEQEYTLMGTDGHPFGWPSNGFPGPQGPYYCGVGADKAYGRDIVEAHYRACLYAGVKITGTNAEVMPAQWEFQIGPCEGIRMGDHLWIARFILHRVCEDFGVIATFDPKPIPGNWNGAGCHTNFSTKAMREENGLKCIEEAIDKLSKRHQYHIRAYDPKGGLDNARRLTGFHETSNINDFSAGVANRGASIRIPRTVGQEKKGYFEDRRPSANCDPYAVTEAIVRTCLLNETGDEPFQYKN
UniProt P13864: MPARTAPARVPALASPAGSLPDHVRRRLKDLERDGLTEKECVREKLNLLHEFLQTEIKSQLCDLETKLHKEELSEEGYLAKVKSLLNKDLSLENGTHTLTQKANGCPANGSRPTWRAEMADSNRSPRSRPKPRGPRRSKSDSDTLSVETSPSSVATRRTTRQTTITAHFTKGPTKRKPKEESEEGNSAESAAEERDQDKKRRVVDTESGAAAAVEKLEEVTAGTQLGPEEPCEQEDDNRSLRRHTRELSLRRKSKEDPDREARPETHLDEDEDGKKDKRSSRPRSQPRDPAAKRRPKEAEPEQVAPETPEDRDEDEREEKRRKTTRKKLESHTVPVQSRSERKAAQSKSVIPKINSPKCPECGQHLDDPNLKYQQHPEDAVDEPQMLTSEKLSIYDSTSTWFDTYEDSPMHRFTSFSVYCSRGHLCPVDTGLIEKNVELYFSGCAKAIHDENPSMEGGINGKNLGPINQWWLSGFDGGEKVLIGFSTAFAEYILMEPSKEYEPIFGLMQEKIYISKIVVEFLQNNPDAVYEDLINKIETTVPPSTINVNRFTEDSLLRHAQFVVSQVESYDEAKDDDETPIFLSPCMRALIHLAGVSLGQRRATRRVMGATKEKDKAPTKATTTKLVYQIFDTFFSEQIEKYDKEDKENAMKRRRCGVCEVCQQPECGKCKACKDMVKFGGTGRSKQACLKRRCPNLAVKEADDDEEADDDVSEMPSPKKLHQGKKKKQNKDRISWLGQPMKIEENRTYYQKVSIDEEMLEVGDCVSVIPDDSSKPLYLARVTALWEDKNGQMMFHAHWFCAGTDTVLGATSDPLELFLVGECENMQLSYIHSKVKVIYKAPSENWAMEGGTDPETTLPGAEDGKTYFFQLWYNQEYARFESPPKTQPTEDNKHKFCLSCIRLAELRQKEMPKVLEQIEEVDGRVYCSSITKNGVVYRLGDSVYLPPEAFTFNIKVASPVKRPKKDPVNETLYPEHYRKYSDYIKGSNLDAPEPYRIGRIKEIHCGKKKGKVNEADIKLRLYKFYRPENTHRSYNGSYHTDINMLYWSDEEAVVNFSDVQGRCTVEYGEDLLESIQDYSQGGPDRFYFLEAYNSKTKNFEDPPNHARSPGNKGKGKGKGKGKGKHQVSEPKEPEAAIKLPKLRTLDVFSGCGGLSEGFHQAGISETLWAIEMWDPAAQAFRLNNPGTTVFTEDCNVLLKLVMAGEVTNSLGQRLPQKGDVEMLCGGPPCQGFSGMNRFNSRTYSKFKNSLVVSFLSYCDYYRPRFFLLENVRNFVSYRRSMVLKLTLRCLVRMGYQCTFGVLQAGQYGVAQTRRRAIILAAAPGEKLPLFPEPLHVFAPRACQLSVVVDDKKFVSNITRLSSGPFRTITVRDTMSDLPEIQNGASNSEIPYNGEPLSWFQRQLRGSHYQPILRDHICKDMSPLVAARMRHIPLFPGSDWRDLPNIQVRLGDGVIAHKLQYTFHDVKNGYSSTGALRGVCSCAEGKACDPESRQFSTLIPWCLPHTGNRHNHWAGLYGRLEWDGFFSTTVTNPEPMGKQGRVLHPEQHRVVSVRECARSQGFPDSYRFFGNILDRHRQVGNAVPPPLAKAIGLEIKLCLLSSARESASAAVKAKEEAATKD
UniProt P08113, whole entry: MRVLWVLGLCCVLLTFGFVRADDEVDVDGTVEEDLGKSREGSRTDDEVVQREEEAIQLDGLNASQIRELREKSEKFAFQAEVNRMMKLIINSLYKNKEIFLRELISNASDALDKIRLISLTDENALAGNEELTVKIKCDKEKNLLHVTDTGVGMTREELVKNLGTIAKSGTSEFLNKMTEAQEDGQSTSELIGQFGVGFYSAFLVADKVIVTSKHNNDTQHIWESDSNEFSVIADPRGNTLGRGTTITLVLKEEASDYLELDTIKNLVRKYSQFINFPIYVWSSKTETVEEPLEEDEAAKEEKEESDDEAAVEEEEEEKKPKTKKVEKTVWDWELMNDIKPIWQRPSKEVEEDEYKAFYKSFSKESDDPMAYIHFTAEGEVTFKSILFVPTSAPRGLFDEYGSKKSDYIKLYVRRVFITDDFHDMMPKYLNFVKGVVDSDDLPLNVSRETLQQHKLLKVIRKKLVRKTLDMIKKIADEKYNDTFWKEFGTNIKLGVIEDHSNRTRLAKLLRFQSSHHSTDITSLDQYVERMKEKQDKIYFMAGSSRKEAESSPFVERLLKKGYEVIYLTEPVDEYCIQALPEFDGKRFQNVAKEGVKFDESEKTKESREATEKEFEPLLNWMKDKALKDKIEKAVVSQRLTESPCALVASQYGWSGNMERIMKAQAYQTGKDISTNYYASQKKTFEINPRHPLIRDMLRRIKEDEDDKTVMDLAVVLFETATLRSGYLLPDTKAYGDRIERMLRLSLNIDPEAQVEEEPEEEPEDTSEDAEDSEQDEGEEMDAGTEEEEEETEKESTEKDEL
UniProt P13504: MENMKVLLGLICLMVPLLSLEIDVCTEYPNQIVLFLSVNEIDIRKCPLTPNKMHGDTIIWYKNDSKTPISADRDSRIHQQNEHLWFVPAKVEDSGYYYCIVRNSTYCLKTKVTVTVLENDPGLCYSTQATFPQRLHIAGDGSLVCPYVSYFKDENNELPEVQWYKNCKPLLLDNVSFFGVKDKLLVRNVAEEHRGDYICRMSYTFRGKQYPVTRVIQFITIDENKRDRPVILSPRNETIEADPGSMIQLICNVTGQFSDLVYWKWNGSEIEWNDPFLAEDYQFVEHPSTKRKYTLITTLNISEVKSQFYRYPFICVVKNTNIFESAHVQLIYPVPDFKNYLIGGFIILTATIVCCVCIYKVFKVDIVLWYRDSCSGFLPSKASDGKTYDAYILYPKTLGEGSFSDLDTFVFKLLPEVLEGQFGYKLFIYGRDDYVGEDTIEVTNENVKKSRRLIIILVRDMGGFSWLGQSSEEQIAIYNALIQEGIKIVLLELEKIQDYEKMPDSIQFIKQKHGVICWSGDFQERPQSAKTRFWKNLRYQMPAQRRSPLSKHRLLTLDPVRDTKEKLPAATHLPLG
UniProt P04627: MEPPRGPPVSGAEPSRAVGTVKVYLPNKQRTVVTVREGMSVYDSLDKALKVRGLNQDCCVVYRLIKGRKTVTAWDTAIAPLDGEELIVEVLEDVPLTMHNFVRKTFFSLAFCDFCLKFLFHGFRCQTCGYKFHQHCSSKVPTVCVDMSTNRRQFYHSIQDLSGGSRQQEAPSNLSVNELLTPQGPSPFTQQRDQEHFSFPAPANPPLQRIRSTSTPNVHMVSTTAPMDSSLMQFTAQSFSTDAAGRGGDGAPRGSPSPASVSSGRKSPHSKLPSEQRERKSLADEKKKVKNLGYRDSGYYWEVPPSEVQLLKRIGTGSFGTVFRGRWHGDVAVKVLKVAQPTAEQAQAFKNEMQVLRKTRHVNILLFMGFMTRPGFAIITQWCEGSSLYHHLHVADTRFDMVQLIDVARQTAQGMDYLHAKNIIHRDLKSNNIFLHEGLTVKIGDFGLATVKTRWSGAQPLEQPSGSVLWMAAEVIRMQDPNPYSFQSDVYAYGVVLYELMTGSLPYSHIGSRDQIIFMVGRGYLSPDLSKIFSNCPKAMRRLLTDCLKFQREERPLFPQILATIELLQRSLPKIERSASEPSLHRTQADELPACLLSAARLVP
UniProt P09925: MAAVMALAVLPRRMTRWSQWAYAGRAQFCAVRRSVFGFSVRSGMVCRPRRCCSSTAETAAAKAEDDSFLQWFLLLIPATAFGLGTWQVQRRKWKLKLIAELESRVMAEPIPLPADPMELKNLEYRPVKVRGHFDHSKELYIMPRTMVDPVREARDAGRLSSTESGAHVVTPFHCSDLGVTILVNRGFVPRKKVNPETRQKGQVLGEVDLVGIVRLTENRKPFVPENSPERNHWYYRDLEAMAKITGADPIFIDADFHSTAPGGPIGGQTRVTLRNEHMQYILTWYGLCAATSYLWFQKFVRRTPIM

| Target | log2 fold change |
| --- | --- |
| UniProt P08030 (peptide sequence: DALEPGQR, peptide start residue: 115) | 0.0899 |
| UniProt P15105 (peptide sequence: CIEEAIDKLSK, peptide start residue: 269) | 0.104 |
| UniProt P13864 (peptide sequence: LHKEELSEEGYLAK, peptide start residue: 68) | -0.202 |
| UniProt P08113 (peptide sequence: EKSEKFAFQAEVNR, peptide start residue: 71) | -0.476 |
| UniProt P13504 (peptide sequence: YPFICVVK, peptide start residue: 311) | 0.293 |
| UniProt P04627 (peptide sequence: VAQPTAEQAQAFKNEMQVLRK, peptide start residue: 338) | -0.619 |
| UniProt P06683 (peptide sequence: EEQEQHYPIPIDCR, peptide start residue: 29) | -0.505 |
| UniProt P09925 (peptide sequence: NLEYRPVK, peptide start residue: 121) | -0.0524 |

Two records drawn at random from those above, as already listed:

| Target | log2 fold change |
| --- | --- |
| UniProt P15105 (peptide sequence: CIEEAIDKLSK, peptide start residue: 269) | 0.104 |
| UniProt P13504 (peptide sequence: YPFICVVK, peptide start residue: 311) | 0.293 |

Reference: the supplement of paper PMC12819154, “High-throughput peptide-centric local stability assay extends protein–ligand identification to membrane proteins, tissues and bacteria” (Nature Structural & Molecular Biology, 2025)
